PubChem BioAssay AID1508597, Cure First | 2020
Shown is an unselected part of the about 2,100 reagents, in one setting of the screen. 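Calls flag viability under 80% in either arm, not effects specific to rucaparib; the reference for percent is not stated.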 The numbers tell different reagents against one gene apart. A reagent listed more than once was tested more than once; the source does not tell the runs apart. The record does not give: the 100% reference.

Screen: 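Knock-downs altering ovarian cancer cell survival with or without PARP inhibitor rucaparib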 (primary screen)
Cells: human ovarian carcinoma lines grown from tumours: OCI-P5x (papillary serous) and OCI-C5x (clear cell)
Reagents: siRNA pool against human genes, 1.25 pmol siRNA per well
Time to read-out: 72 h or 96 h, depending on the cell culture
Treatment: rucaparib 20 µM (about IC30) or vehicle, present until read-out
Rucaparib or vehicle: Rucaparib
Cell line: OCI-C5x (clear cell)
Measurement: 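Luminescent ATP-based viability assay read 72 or 96 h after transfection, depending on culture, given as normalised percent viability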
Scale: viability, normalised: higher = more viable cells remaining
Active means: 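Active when normalised viability falls below 80 percent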
Meaning of the calls: active = viability under 80%; inactive = viability 80% or more

SNAPC4, technical replicate 1 gave viability, normalised (%) = 38.4; active.
SNAPC4, technical replicate 2 scored viability, normalised (%) = 48.7; active.
SNAPC4, technical replicate 3 scored viability, normalised (%) = 45.4; active.
With FOS, technical replicate 1, the entry reads viability, normalised (%) = 40; active.
For FOS, technical replicate 2 the deposit lists viability, normalised (%) = 56.5; active.
For FOS, technical replicate 3, the entry reads viability, normalised (%) = 54.8; active.
With RAD51D #1, technical replicate 1 the deposit lists viability, normalised (%) = 46.8; active.
For RAD51D #1, technical replicate 2 the deposit lists viability, normalised (%) = 50.1; active.
For RAD51D #1, technical replicate 3, the values are viability, normalised (%) = 61.1; active.
RAD51D #2, technical replicate 1 scored viability, normalised (%) = 54.2; active.
With RAD51D #2, technical replicate 2 the deposit lists viability, normalised (%) = 75.1; active.
For RAD51D #2, technical replicate 3 the deposit lists viability, normalised (%) = 60.9; active.
For KMT2A, technical replicate 1, the values are viability, normalised (%) = 27.6; active.
With KMT2A, technical replicate 2, the entry reads viability, normalised (%) = 21.8; active.
KMT2A, technical replicate 3 gave viability, normalised (%) = 26.4; active.
With NFRKB, technical replicate 1, the values are viability, normalised (%) = 56.1; active.
NFRKB, technical replicate 2 gave viability, normalised (%) = 47.6; active.
NFRKB, technical replicate 3 scored viability, normalised (%) = 46.8; active.
For TP53, technical replicate 1, the entry reads viability, normalised (%) = 98.2; inactive.
With TP53, technical replicate 1, the entry reads viability, normalised (%) = 59.5; active.
TP53, technical replicate 1 showed viability, normalised (%) = 57.1; active.
With TP53, technical replicate 2 the deposit lists viability, normalised (%) = 67.9; active.
With TP53, technical replicate 2, the entry reads viability, normalised (%) = 69.8; active.
TP53, technical replicate 2 gave viability, normalised (%) = 67.3; active.
With TP53, technical replicate 3, the entry reads viability, normalised (%) = 70.2; active.
With TP53, technical replicate 3, the values are viability, normalised (%) = 49.9; active.
TP53, technical replicate 3 showed viability, normalised (%) = 71.2; active.
For CHMP5, technical replicate 1, the entry reads viability, normalised (%) = 41.1; active.
With CHMP5, technical replicate 2, the entry reads viability, normalised (%) = 44.5; active.
CHMP5, technical replicate 3 showed viability, normalised (%) = 33.4; active.
RNF8, technical replicate 1 gave viability, normalised (%) = 40.7; active.
RNF8, technical replicate 1 showed viability, normalised (%) = 45.5; active.
RNF8, technical replicate 2 showed viability, normalised (%) = 44.7; active.
RNF8, technical replicate 2 scored viability, normalised (%) = 38.2; active.
RNF8, technical replicate 3 scored viability, normalised (%) = 55.5; active.
For RNF8, technical replicate 3 the deposit lists viability, normalised (%) = 36.1; active.

4 entries from above, set out differently.
TP53, technical replicate 3
- viability, normalised (%): 70.2
- Outcome: active

TP53, technical replicate 3
- viability, normalised (%): 49.9
- Outcome: active

TP53, technical replicate 3
- viability, normalised (%): 71.2
- Outcome: active

CHMP5, technical replicate 1
- viability, normalised (%): 41.1
- Outcome: active
